Data: PubChem BioAssay AID1347075 (National Center for Advancing Translational Sciences (NCATS), 2019)
“And” between values parts separate entries of the source, which are not always exact repeats. Equal values may be shown once. Out of some 400,000 compounds screened, about 5,500 (1.4%) were called active. The shares of active, inactive and inconclusive entries below differ from those in the screen. The call rests on the fitted dose curve; in most records, active means well fitted cell-killing curve with a large enough effect; inconclusive means small, poorly fitted or top-dose-only effect, or effect the other way; inactive means flat fitted curve, though single readings scatter. Potencies beside an inconclusive call are fits to weak or partial responses and may not hold up.

Assay: qHTS assay for MDR1-selective chemotherapeutics: Primary screen using the parental adenocarcinoma cell KB-3-1; further: nearly all actives have a fitted effect of over 60% in size
Conditions: KB-3-1 viability, CellTiter-Glo ATP luminescence, 72 h; activity change, negative = cytotoxic: at 46.1 µM (top of the series)
Method in brief: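 Using CellTiter-Glo luminescence, growth of non-resistant KB-3-1 adenocarcinoma cells is assessed 72 h after pin-tool compound addition at 37 °C. Normalized responses across the concentration series yield fitted curves.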
On the % scale 0 is the no-effect control and ±100 the full control effect; potency means the concentration at half of the fitted maximal effect.

| SMILES | activity change, negative = cytotoxic | Potency |
| --- | --- | --- |
| COc1cc(C(c2nnnn2C2CCCC2)N2CCc3ccccc3C2)ccc1O (stereo not given) | inactive: 4.42% |  |
| CCOc1ccc(C(CN2CCOCC2)C(C)=O)cc1OC (stereo not given) |  | inconclusive: 20.6 µM [cytotoxic, single point] |
| Cc1cc(OC(=O)c2ccccc2C)c([N+](=O)[O-])c(=O)[nH]1 | inactive: 7.47% |  |
| C=CC[C@@H](CC(=O)N[C@@H](CO)Cc1ccccc1)C(=O)NC[C@H](OC(=O)[C@@H](CC=C)Cc1ccc(F)cc1)c1ccccc1 |  | inconclusive: 29.1 µM [cytotoxic, single point] |
| COc1ccc(NC(=O)CNC(=O)Cn2c(C)cc3ccccc3c2=O)cc1OC | inconclusive: 0% |  |
| CCc1nc2ccccc2c(NC(=O)CN2CC(C)CC(C)C2)c1C (stereo not given) | inactive: -4.46% |  |
| O=C(CN1CCN(c2ccccc2F)CC1)c1ccc(O)c(O)c1 |  | inconclusive: 29.1 µM [cytotoxic, single point] |
| CCCCN1C(C(=O)c2ccccc2)=C(OC(C)=O)c2ccccc2S1(=O)=O |  | inconclusive: 29.1 µM [cytotoxic, single point] |
| CCCCN(CCCC)C1=C(C(=O)c2ccccc2)N(C)S(=O)(=O)c2ccccc21 |  | inconclusive: 18.4 µM [cytotoxic, single point] |
| CCOc1ccc(CCN2C(=S)N([C@@H](CC(C)C)CN3CCC[C@@H]3CN3C(=S)NC[C@@H]3Cc3ccc(O)cc3)C[C@@H]2Cc2ccc(O)cc2)cc1 |  | inconclusive: 29.1 µM [cytotoxic, single point] |
| C=C(C)CSc1nnc2[nH]c(=O)cc(N)n12 |  | active: 16.4 µM |
| Cc1ccc(S(=O)(=O)N2CCN(C(=O)COC(=O)c3ccc(Br)o3)CC2)c(C)c1 |  | inconclusive: 7.31 µM [cytotoxic, partial curve, poor fit] |
| Cc1c(C(=O)NCc2ccco2)sc2nc(-c3ccccc3)cn12 |  | active: 16.4 µM |
| COc1ccc(C(=O)NC(=S)NCc2ccco2)cc1Br | inactive: 3.97% |  |
| CCOC(=O)CSc1ncnc2c(C(=O)OCC)c3n(c12)CCC3 |  | inconclusive: 0.259 µM [rising, full curve] |
| O=C(Nc1ccccn1)c1nc(-c2ccccc2)n(-c2ccccc2)n1 |  | inconclusive: 23.1 µM [rising, partial curve, poor fit] |
| O=S(=O)(Cc1ncc(C(F)(F)F)cc1Cl)c1ccccc1 |  | inconclusive: 23.1 µM [cytotoxic, single point] |
| Cc1cccc(-n2c(SCC(=O)N3CCC(C(=O)O)CC3)nc3ccccc3c2=O)c1C | inactive: -4.73% |  |
| Cc1cc(NC(=O)c2ccc(NC(=O)C3CCCO3)cc2)ccc1Br (stereo not given) |  | inconclusive: 14.6 µM [cytotoxic, partial curve] |
| O=C(CSc1ncnc2c1nnn2-c1ccc(F)cc1)NCC1CCCO1 (stereo not given) | inactive: -3.87% |  |
| COc1ccc(CNS(=O)(=O)c2ccc(-c3cnc(C4CC4)o3)cc2)cc1 |  | inconclusive: 32.6 µM [cytotoxic, single point] and inconclusive: 23.1 µM [cytotoxic, partial curve, poor fit] |
| COc1ccc(OC)c(/C=N/Nc2nncn2/N=C/c2cc(OC)ccc2OC)c1 |  | active: 20.6 µM |
| COc1ccc(Nc2ncc(C(=O)N3CCN(c4ccc(F)cc4)CC3)c3ccccc23)cc1 |  | inconclusive: 32.6 µM [cytotoxic, single point] |
| CN(C)c1ccc(CNC(=O)C2Cc3c(-c4ccccc4Oc4ccccc4)ccnc3O2)cc1 (stereo not given) |  | inconclusive: 29.1 µM [cytotoxic, single point] |

| SMILES | activity change, negative = cytotoxic | Potency |
| --- | --- | --- |
| Cc1cc(C)c(S(=O)(=O)c2ccccc2)c(N2CCOCC2)n1 | inactive: 0.633% |  |
| COc1ccc(N=C2O/C(=C/c3sc(=S)n(CC4CCCO4)c3O)N=C2C#N)cc1 (stereo not given) |  | inconclusive: 23.1 µM [cytotoxic, partial curve, poor fit] |
| O=C(Nc1nnc(-c2ccncc2)s1)NC12CC3CC(CC(C3)C1)C2 | inactive: 4.87% |  |
| c1ccc(OCC2CCNCC2)nc1 | inactive: 14.3% |  |
| O=C(CSC1=NCCN1)NC1CCCCCC1 | inactive: -1.28% |  |
| O=C(Nc1ccc(Cl)cc1C(=O)NCc1cccnc1)c1ccc(Cl)cc1Cl |  | active: 20.6 µM |
| O=C(CCSc1ccccc1Cl)Nc1cccc([N+](=O)[O-])c1 | inactive: -11.3% |  |
| O=C1CN(S(=O)(=O)c2ccccc2Cl)CCN1 |  | inconclusive: 16.4 µM [rising, partial curve] |
| O=C(CSc1nc2ccccc2c(=O)n1-c1ccccc1)N1CCc2ccccc2C1 | inactive: -26.8% |  |
| Cc1ccc(C(=O)/C=C/c2cn(CC(O)CN3CCOCC3)c3ccccc23)cc1 (stereo not given) |  | inconclusive: 16.4 µM [cytotoxic, single point] |
| COc1cc(OC)c2cc(C(=O)N/N=C/c3cccc(OC)c3O)[nH]c2c1 |  | inconclusive: 16.4 µM [cytotoxic, single point] |
| CCC(C)Sc1cccc(-c2nc3cnccn3c2NC2CCCCC2)c1 (stereo not given) |  | inconclusive: 29.1 µM [cytotoxic, single point] |
| COc1ccc2[nH]c(=O)c(CN(Cc3nnnn3Cc3ccco3)C3CCCCC3)cc2c1 |  | inconclusive: 29.1 µM [cytotoxic, single point] |
| CC(NC(=O)/C(=C/c1ccc(OC(F)F)cc1)c1ccccc1)c1ccccc1 (stereo not given) |  | inconclusive: 29.1 µM [cytotoxic, single point] |
| Cc1ccc(C(=O)Nc2ccccc2-c2ccccc2)cc1[N+](=O)[O-] |  | inconclusive: 29.1 µM [cytotoxic, single point] |
| Cc1cc(Br)c2nc(-c3ccccc3)c(Cc3cccc(Cl)c3)n2c1 | inactive: 5.45% |  |
| CCN(CC)CCCN(C(=O)c1cccs1)c1nc(-c2ccc(OC)cc2)cs1 |  | inconclusive: 29.1 µM [cytotoxic, single point] |
| Cc1ccc2nc(SCC(=O)c3ccc(Cl)s3)[nH]c2c1 | inactive: 1.25% |  |
| CCCNC(=O)c1cc2c(c(-c3cccc(-c4ccccc4F)c3)n1)[C@H](CCO)N(C(=O)CC1CC1)C2 |  | inconclusive: 29.1 µM [cytotoxic, single point] |
| N#Cc1ccc(NCCc2ccccn2)c([N+](=O)[O-])c1 |  | active: 8.2 µM |
| COc1ccc(CC2(CO)CCN(S(=O)(=O)N(C)C)CC2)cc1 |  | inconclusive: 25.9 µM [cytotoxic, single point] |
| COc1ccccc1CNC(=O)[C@@H]1CCCN1S(=O)(=O)c1ccccc1F | inactive: 11.7% |  |
| CC#CC[N+](C)(C)CCCCCCCCCCCC |  | inconclusive: 25.9 µM [cytotoxic, partial curve, poor fit] |
| Cc1ccc2[nH]c3c(N4CCN(Cc5ccccc5)CC4)ncnc3c2c1 |  | inconclusive: 18.4 µM [cytotoxic, single point] |

| SMILES | activity change, negative = cytotoxic | Potency |
| --- | --- | --- |
| Cc1ccc(NS(=O)(=O)c2ccc3c(c2)c(=O)n(C)c(=O)n3C)cc1F |  | active: 18.4 µM |
| CCOC(=O)c1c(C)[nH]c(C)c1C(=O)COC(=O)/C=C/c1ccc(OC)cc1 |  | inconclusive: 9.2 µM [cytotoxic, partial curve, poor fit] |
| Cc1ccc2c(c1)C1CN(C)CCC1N2C(=O)COc1ccccc1F (stereo not given) |  | inconclusive: 0.0046 µM [rising, full curve, poor fit] |
| CCN(c1ccccc1)S(=O)(=O)c1ccc(C(=O)Oc2ccc(C(C)=O)cc2)cc1 | inactive: 11.3% |  |
| CC1(C)Cc2c(c(N3CCOCC3)nc3sc4c(NCC5CCCO5)nnnc4c23)CS1 (stereo not given) |  | inconclusive: 16.4 µM [rising, partial curve, poor fit] |
| O=S1(=O)CC(N2CCCCC2)CN1CCc1ccccc1 (stereo not given) | inactive: 0.0564% |  |
| COc1ccc(C)cc1NC(=O)C1CCCCN1S(=O)(=O)c1ccccc1 (stereo not given) |  | inconclusive: 29.1 µM [cytotoxic, single point] |
| Cc1c(C)c2c(OCC(=O)N[C@@H](C)C(=O)O)cc3c(c2oc1=O)CCC(C)(C)O3 | inactive: 6.79% |  |
| CCOC(=O)c1ccccc1NC(=O)COC(=O)Cc1ccccc1F | inactive: -5.9% |  |
| COc1ccc(CC(=O)Nc2ccccc2N2CCCC2)cc1 | inactive: 11.6% |  |
| CCOc1cc(C(=O)N2CCn3c4c(c5cc(C)ccc53)CCCC42)cc(OCC)c1OCC (stereo not given) | inconclusive: -16.5% |  |
| Cc1ccc(Cl)cc1N(C)C(=O)c1cn(C2CCCCC2)c(=O)c2c1c1ccccc1n2C |  | inconclusive: 11.6 µM [cytotoxic, partial curve] |
| CC(C)(C)c1ccc(Cn2c(=N)n(CC(O)c3ccco3)c3ccccc32)cc1 (stereo not given) |  | inconclusive: 25.9 µM [cytotoxic, single point] |
| COc1ccc(-c2nc(CCNS(=O)(=O)c3ccc4c(c3)OCCO4)cs2)cc1 |  | inconclusive: 29.1 µM [cytotoxic, single point] |
| O=C(CCNS(=O)(=O)c1cccc(C(F)(F)F)c1)NC1CC1 | inactive: -6.92% |  |
| O=C(O)c1cccc(N2C(=O)/C(=C/c3ccc(SCc4ccc(Cl)cc4)o3)SC2=S)c1 | inactive: -2.66% |  |
| CCN(Cc1ccccc1)S(=O)(=O)c1ccc2c(c1)CC(C)N2C(=O)C1CCC1 (stereo not given) |  | inconclusive: 29.1 µM [cytotoxic, single point] |
| Cc1ccc(N2C(=O)CC(Sc3nccc(C)n3)C2=O)cc1 (stereo not given) | inactive: -7.57% |  |
| CCOC(=O)N1CCN(C(c2cccnc2)c2ccc3cccnc3c2O)CC1 (stereo not given) |  | inconclusive: 20.6 µM [cytotoxic, single point] |
| O=c1c2oc3ccccc3c2n(Cc2ccccc2F)c(=O)n1Cc1ccccc1 | inactive: 3.28% |  |
| Cc1ccc2nc(NC(=O)CN(C)S(=O)(=O)c3cccc4nsnc34)sc2c1 |  | inconclusive: 4.61 µM [cytotoxic, full curve, poor fit] |
| COc1ccc(/C=C2\SC(=O)N(CC(=O)NC3CCS(=O)(=O)C3)C2=O)cc1 (stereo not given) |  | inconclusive: 25.9 µM [rising, single point] |

Reprinted at random: 3 entries already listed.

| SMILES | activity change, negative = cytotoxic | Potency |
| --- | --- | --- |
| Cc1c(C)c2c(OCC(=O)N[C@@H](C)C(=O)O)cc3c(c2oc1=O)CCC(C)(C)O3 | inactive: 6.79% |  |
| CC#CC[N+](C)(C)CCCCCCCCCCCC |  | inconclusive: 25.9 µM [cytotoxic, partial curve, poor fit] |
| O=C(CCSc1ccccc1Cl)Nc1cccc([N+](=O)[O-])c1 | inactive: -11.3% |  |
